# Some results were stated once for a whole list of compounds, not compound by compound. At least one compound was matched to its structure with a doubt left.
# System: E. coli
# Experiment: Patients with E. coli septicemia
# Assay type: in vivo
# Details: vector 25 mg/kg I.V. twice a day and α-ethyl BSO 4 mmol/kg orally four times a day
# Procedure: A person with fever, mild hypotension, and moderate hematuria has blood and urine cultures that are positive for E. coli. They are given a diagnosis of E. coli septicemia and urinary tract infection. […]
# A person with E. coli sepsis presents feeling nauseated and gravely ill. However, their blood pressure is stable. They receive a standard regimen of IV antibiotics, including ampicillin and gentamicin as well as the siderophore ferrioxamine B at a dose of 10 mg/kg.
# A person with E. coli sepsis presents with a blood pressure of 80/50 mm Hg. Broad spectrum antibiotics are initiated including ampicillin and gentamicin. […] The patient then receives an intravenous dose of nitrosated chloramphenicol, 12.5 mg four times/day IV together with methylene blue IV at a dose of 5 mg/kg as well as fluid support.
smiles,measurement,value
CCCCS(=N)(=O)CCC(N)(CC)C(=O)O [α-ethyl-L-buthionine-S-sulfoximine],time to resolution of symptoms and restored blood pressure,≤ 24 h

# Source: US7022737B2, “Manipulating nitrosative stress to kill pathologic microbes, pathologic helminths and pathologically proliferating cells or to upregulate nitrosative stress defenses” (Duke University, priority 1996, dated 2006)
